Data taken from PMC12373823.
No constants are given. Whether binding was seen depends on the method and setting. Binding seen in cells or lysates may run through a third protein. Some entries that bind do so weakly or less than the wild type.

Chains of the proteins cited; added tags and fusions are not shown.
UniProt O15260: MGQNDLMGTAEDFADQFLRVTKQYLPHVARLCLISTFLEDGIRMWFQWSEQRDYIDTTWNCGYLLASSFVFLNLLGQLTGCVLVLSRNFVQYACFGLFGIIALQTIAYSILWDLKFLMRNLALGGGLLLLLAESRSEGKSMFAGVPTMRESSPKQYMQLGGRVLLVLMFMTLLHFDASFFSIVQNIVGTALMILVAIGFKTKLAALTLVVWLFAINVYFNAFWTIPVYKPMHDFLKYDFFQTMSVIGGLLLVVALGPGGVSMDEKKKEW
UniProt Q86WV6: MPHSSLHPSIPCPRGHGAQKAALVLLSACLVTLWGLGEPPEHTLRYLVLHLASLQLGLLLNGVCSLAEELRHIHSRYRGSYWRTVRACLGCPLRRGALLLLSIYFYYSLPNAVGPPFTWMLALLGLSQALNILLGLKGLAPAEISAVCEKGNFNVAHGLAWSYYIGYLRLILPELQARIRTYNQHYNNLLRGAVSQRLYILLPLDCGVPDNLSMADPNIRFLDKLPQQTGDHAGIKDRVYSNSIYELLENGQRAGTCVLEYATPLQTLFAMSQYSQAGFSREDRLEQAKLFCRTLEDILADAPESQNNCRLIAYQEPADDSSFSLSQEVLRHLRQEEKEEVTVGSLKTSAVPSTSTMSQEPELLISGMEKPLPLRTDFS

Tests used:
SURF4 [1] = target: SURF4 (UniProt O15260); test: co-IP; lysate of HEK 293T cells; magnetic beads with antibody, 4 °C overnight, three washes with IP wash buffer (NP-40, NaCl, Tris-HCl, SDS); which protein was precipitated is not told
SURF4 [2] = target: SURF4 (UniProt O15260); test: co-IP; lysate of JE-6 T cells; magnetic beads with antibody, 4 °C overnight, three washes with IP wash buffer (NP-40, NaCl, Tris-HCl, SDS); which protein was precipitated is not told

## stimulator of interferon genes (STING) (from UniProt Q86WV6 1-379)
SURF4 [1]
  binding: binds
SURF4 [2]
  binding: binds
